Taken from: PubChem BioAssay AID1671195 (Yale University, 2021)
The deposit covers about 22,000 reagents; below is an unselected part. About 1,510 of all reagents (6.9%) count as active. 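Active includes knockdowns raising or lowering LDL uptake; positive z-scores mean more uptake, negative mean less.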 Reagents against one gene are numbered here. Reagent sequences are not shown.

Purpose: 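Genes whose knockdown alters LDL uptake in liver cancer cells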 (primary screen)
System: human Huh7 hepatoma cells
Reagents: siRNA pool against human genes, 18 nM
Duration: about 2 to 2.5 days of knockdown, then 8 h LDL uptake
Challenge: DiI-labelled LDL at 30 µg/ml for 8 h, in lipoprotein-deficient serum medium
Detection: 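Per-cell DiI-LDL intensity by automated imaging; well means scaled to the plate median and given as a robust z-score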
Scale: robust z-score: higher = more LDL uptake after knockdown
Call rule: 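a gene counts as active if at least two replicate z-scores exceed ±2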

gene knocked down	reagent no.	robust z-score, replicate 1	robust z-score, replicate 2	robust z-score, replicate 3	Call
OR11G2 (GeneID 390439)	1	1.55	1.58	1.46	inactive
DHRS11 (GeneID 79154)	1	-0.606	-0.538	-0.276	inactive
PLXNA4 (GeneID 91584)	1	2.05	1.59	1.65	inactive
PLXNA4 (GeneID 91584)	2	-1.69	-1.52	-1.41	inactive
ANKRD33 (GeneID 341405)	1	-0.699	-0.658	-0.813	inactive
CAPNS1 (GeneID 826)	1	-1.7	-0.662	-0.966	inactive
ZBTB45 (GeneID 84878)	1	0.819	1.38	0.1	inactive
MOAP1 (GeneID 64112)	1	-2.27	-2.06	-2.08	active
ODAD4 (GeneID 83538)	1	2.34	0.59	1.13	inactive
P2RY14 (GeneID 9934)	1	-1.11	-0.488	-0.851	inactive
LOC441365 (retired record) (GeneID 441365)	1	1.12	1.02	1.51	inactive
GJB4 (GeneID 127534)	1	1.11	2.15	1.51	inactive
KCNK1 (GeneID 3775)	1	-0.594	-0.411	0.0636	inactive
MAS1L (GeneID 116511)	1	-0.958	-0.243	-0.935	inactive
CD3E (GeneID 916)	1	0.0758	-0.652	0.466	inactive
LOC387981 (retired record) (GeneID 387981)	1	-1.57	-1.36	-1.78	inactive
LIME1 (GeneID 54923)	1	1.16	0.367	0.79	inactive
LOC442124 (retired record) (GeneID 442124)	1	-2.09	-1.66	-1.11	inactive
TMEM255B (GeneID 348013)	1	-0.388	-0.785	-0.305	inactive
IFITM3P9 (GeneID 442017)	1	-1.06	-0.775	-0.761	inactive
FAM76B (GeneID 143684)	1	0.485	-0.00362	0.792	inactive
ZNF420 (GeneID 147923)	1	1.5	1.36	2.11	inactive
NLRC3 (GeneID 197358)	1	-0.00259	0.344	1.12	inactive
COL4A4 (GeneID 1286)	1	1.09	-0.38	0.121	inactive

7 entries from above in another layout:
gene knocked down,reagent no.,"robust z-score, replicate 1","robust z-score, replicate 2","robust z-score, replicate 3",Call
LOC442124 (retired record) (GeneID 442124),1,-2.09,-1.66,-1.11,inactive
TMEM255B (GeneID 348013),1,-0.388,-0.785,-0.305,inactive
IFITM3P9 (GeneID 442017),1,-1.06,-0.775,-0.761,inactive
FAM76B (GeneID 143684),1,0.485,-0.00362,0.792,inactive
ZNF420 (GeneID 147923),1,1.5,1.36,2.11,inactive
NLRC3 (GeneID 197358),1,-0.00259,0.344,1.12,inactive
COL4A4 (GeneID 1286),1,1.09,-0.38,0.121,inactive

Next results:
gene knocked down	reagent no.	robust z-score, replicate 1	robust z-score, replicate 2	robust z-score, replicate 3	Call
PRRT2 (GeneID 112476)	1	-0.132	0.495	0.577	inactive
TOB2 (GeneID 10766)	1	-0.249	0.522	-1.72	inactive
TWF1 (GeneID 5756)	1	-0.246	0.376	0.64	inactive
FZD7 (GeneID 8324)	1	-1.06	-0.825	-0.737	inactive
PCOTH (GeneID 542767)	1	-0.386	0.268	0.0983	inactive
IBA57 (GeneID 200205)	1	-0.0275	0.0167	0.19	inactive
RPS6KA3 (GeneID 6197)	1	-0.154	-0.401	0.351	inactive
AKAP14 (GeneID 158798)	1	0.73	4.69	1.46	inactive
SPINK14 (GeneID 408187)	1	0.969	0.722	0.304	inactive
AMER1 (GeneID 139285)	1	-1.27	-0.4	0.256	inactive
HARBI1 (GeneID 283254)	1	0.566	0.621	1.11	inactive
ZNF3 (GeneID 7551)	1	-0.117	0.00884	-0.418	inactive
LOC400682 (GeneID 400682)	1	0.61	0.626	0.894	inactive
WRNIP1 (GeneID 56897)	1	0.357	-0.889	0.273	inactive
ATP13A2 (GeneID 23400)	1	0.868	1.21	0.186	inactive
LOC339875 (retired record) (GeneID 339875)	1	-1.69	-1.66	-1.61	inactive
SHISAL1 (GeneID 85352)	1	0.668	1.19	2.18	inactive
DNAJC30 (GeneID 84277)	1	-1.02	-0.924	-1.37	inactive
LOC729897 (GeneID 729897)	1	1.96	0.616	1.44	inactive
CHGA (GeneID 1113)	1	0.901	1.05	1.8	inactive
CATSPERT (GeneID 151254)	1	0.508	0.0407	-0.152	inactive
TOP2A (GeneID 7153)	1	2.28	2.5	1.41	active
ITGAM (GeneID 3684)	1	-0.184	-1.26	-1.49	inactive
ACHE (GeneID 43)	1	-2.68	0.425	-0.188	inactive
MLIP (GeneID 90523)	1	-0.128	-0.412	-0.821	inactive
GJC1 (GeneID 10052)	1	-0.475	-0.0627	-0.758	inactive
NKAIN3 (GeneID 286183)	1	2.04	1.64	1.78	inactive
LOC387872 (retired record) (GeneID 387872)	1	0.648	-0.437	-0.269	inactive
ACOT4 (GeneID 122970)	1	-1.28	-1.55	-0.856	inactive
THRB (GeneID 7068)	1	0.718	0.186	-0.114	inactive
ITLN1 (GeneID 55600)	1	3.64	3.47	3.47	active
BPIFB9P (GeneID 402016)	1	1.31	0.509	1.03	inactive
ASTL (GeneID 431705)	1	-0.629	-1.09	-0.945	inactive
TEX12 (GeneID 56158)	1	-0.0173	-0.0371	-0.994	inactive
OR2M3 (GeneID 127062)	1	1.69	1.51	-0.0852	inactive
RTN4 (GeneID 57142)	1	0.172	-0.62	-0.368	inactive
RGS1 (GeneID 5996)	1	-0.611	-0.654	-0.509	inactive
LAPTM4B (GeneID 55353)	1	2.18	-0.412	1.4	inactive
NSMCE2 (GeneID 286053)	1	-0.831	-1.05	-1.22	inactive
ADM5 (GeneID 199800)	1	0.0745	0.568	0.16	inactive
SLC9A1 (GeneID 6548)	1	-2.18	-2.22	-2.67	active
FMO9P (GeneID 116123)	1	0.824	0.265	0.548	inactive
RPL5 (GeneID 6125)	1	-0.921	-0.601	-1.45	inactive
POLR2A (GeneID 5430)	1	-0.247	-0.376	-0.415	inactive
